Laboratory results published in paper PMC8508650.
Results are given in words; binding and its absence hold for the method and conditions named. In cells and extracts the contact can be indirect. Binding can be weak; no strength is given.

By UniProt entry, the sequences of proteins in these tests, tags left out. Where a name states a change or a piece, a line headed by the entry shows the natural chain unless it says otherwise. Residues count along the entry.
UniProt P06276, residues 29-602: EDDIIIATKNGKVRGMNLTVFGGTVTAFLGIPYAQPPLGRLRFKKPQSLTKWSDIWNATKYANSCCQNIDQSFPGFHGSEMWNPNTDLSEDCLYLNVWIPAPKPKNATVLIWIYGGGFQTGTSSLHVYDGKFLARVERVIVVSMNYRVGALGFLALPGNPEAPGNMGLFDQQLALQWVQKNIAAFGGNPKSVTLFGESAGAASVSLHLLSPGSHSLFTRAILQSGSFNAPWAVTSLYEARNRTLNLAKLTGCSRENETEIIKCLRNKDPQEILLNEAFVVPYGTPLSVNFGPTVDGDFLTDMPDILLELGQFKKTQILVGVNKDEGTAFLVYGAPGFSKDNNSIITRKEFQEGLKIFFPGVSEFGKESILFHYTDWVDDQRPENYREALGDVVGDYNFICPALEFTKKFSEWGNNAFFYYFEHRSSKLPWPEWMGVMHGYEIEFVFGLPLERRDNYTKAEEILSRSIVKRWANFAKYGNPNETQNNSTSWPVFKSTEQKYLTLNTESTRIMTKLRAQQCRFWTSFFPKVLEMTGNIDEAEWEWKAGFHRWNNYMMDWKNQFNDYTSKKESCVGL
UniProt P02647: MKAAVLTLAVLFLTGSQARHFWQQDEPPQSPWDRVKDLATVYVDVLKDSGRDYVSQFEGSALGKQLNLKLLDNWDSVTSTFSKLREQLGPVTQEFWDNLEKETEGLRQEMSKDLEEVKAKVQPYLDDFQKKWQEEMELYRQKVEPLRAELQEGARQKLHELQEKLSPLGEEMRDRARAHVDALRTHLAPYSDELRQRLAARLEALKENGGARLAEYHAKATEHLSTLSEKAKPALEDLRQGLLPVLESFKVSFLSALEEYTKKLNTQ

Biological target: butyrylcholinesterase (human (endogenous in serum)) (UniProt P06276)
Test: co-IP; fraction 12 of the iodixanol density gradient of human serum; 10 µg mouse anti-BChE monoclonal antibody 3E8 immobilised on AminoLink Plus Coupling Resin (Pierce Co-IP Kit); overnight at 4 °C; washed two times with 200 µL IP Lysis/Wash Buffer; eluate identified by mass spectrometry; quenched resin without antibody as control

With ApoA-I (from UniProt P02647) the binding was “binds”.
